Consider one substance from paper PMC7300003, “Alternative catalytic residues in the active site of Esco acetyltransferases” (Scientific Reports, 2020).

Chains of the proteins cited; added tags and fusions are not shown.
UniProt Q9UQE7: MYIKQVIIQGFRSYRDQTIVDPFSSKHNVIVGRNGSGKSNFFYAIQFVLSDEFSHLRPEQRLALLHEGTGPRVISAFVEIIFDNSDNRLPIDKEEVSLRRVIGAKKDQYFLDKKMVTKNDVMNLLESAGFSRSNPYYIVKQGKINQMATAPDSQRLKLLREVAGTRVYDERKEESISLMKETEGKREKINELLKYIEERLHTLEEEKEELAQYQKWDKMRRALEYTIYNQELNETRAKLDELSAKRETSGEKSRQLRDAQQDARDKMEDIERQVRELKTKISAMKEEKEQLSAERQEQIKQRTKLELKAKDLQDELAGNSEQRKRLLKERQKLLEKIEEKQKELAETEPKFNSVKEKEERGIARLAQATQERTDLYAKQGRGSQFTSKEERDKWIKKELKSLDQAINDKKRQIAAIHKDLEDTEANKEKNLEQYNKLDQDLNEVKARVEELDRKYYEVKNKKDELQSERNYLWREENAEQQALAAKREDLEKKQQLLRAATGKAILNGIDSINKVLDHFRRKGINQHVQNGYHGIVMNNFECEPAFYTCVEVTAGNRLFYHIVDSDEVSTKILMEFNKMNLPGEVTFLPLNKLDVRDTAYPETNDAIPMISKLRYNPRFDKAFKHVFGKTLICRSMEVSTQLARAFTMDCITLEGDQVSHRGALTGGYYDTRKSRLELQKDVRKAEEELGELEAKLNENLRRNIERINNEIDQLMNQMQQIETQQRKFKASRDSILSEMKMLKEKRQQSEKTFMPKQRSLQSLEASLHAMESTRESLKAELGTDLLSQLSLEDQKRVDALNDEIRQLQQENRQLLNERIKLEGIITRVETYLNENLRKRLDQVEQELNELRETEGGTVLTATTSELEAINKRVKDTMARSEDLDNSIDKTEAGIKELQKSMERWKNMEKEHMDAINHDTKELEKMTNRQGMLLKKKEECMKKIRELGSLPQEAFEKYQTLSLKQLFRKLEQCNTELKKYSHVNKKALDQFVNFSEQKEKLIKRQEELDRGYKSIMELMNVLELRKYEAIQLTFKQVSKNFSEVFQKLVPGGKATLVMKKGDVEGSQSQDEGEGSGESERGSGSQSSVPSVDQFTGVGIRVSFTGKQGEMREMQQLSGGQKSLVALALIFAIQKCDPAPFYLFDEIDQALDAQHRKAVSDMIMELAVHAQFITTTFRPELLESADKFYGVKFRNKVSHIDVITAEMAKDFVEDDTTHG

This experiment has as its target T1, His-SA1 (tetramer construct) (human) (UniProt Q8WVM7).
T1 sequence: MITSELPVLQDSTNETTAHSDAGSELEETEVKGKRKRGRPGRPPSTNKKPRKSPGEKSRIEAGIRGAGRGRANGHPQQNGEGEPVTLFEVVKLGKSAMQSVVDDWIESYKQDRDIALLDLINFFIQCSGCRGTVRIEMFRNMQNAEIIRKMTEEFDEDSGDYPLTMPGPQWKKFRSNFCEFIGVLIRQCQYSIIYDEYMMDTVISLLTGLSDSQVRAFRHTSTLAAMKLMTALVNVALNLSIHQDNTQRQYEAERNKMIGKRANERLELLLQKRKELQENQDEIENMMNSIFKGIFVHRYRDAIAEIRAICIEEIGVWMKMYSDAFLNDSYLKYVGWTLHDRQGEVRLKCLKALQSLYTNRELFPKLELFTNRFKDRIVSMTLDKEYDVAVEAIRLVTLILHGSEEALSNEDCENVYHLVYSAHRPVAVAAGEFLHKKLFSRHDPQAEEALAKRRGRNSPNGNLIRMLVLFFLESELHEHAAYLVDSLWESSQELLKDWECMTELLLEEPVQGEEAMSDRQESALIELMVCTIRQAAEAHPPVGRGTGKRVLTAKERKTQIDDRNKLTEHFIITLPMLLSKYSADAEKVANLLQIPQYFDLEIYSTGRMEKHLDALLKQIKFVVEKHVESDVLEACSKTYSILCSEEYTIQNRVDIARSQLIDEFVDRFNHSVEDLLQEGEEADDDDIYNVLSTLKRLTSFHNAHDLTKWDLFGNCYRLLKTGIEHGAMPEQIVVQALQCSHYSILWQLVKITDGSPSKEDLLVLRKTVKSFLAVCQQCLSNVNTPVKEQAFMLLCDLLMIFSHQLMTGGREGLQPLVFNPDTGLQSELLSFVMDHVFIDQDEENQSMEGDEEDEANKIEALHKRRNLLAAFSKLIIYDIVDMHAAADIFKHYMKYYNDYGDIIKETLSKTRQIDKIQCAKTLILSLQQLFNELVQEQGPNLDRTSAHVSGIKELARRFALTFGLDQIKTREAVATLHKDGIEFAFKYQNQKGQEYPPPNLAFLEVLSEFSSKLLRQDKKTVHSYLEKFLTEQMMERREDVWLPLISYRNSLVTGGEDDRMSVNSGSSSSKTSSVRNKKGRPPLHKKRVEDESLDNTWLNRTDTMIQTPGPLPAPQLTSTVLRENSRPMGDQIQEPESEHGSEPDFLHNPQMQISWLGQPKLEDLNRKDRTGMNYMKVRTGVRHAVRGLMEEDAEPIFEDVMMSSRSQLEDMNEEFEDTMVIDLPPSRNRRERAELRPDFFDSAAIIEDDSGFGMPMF
Kind of experiment: co-purification of co-expressed proteins (Ni-NTA, then anti-FLAG M2 agarose); SMC1, SMC3-FLAG, SCC1 and HIS-SA1 co-expressed in Hi5; Ni-NTA beads with a 1 M NaCl wash, imidazole elution; eluate on anti-FLAG M2 agarose, eluted with FLAG peptide in 25 mM HEPES pH 7.5, 150 mM NaCl, 10% glycerol, 1 mM DTT.

Results are given in words; binding and its absence hold for the method and conditions named. Some results given as binding are weak or reduced against the parent protein; the word gives no strength. Tags and fused reporters may be left off the sequences shown.

As to “SMC3-FLAG (tetramer construct) (from UniProt Q9UQE7 1-1217)”, the binding result is “binds”.
